Literature values in US9974767B2, “Statins in the treatment of muscular dystrophies and myopathies” (University of Washington, priority 2014, dated 2018).

Details: cited from earlier work

## CC(C)c1c(C(=O)Nc2ccccc2)c(-c2ccccc2)c(-c2ccc(F)cc2)n1CC[C@@H](O)C[C@@H](O)CC(=O)O [atorvastatin]
Evening vs morning
  rate and extent of absorption by time of administration: lower during evening than morning
Food intake
  absorption when consumed with food: reduced absorption
